The list shows a part of the results. Values are raw readings; no control value is given beside them.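 Primary screen: polymyxin B was added at a level permeabilizing Salmonella outer membranes while sparing inner membranes. DMSO wells, both with and without polymyxin B, established maximum growth. Plate-to-plate variation meant each plate was ranked on its own, and the lowest-OD600 compounds were selected as hits.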
System: Salmonella enterica serovar Typhimurium SL1344
Assay: bacterial growth OD600 after 18 h with compound and polymyxin B; higher = more bacterial growth (less inhibition)
Conditions: 50 µM, Mueller-Hinton broth

Row | SMILES | bacterial growth OD600 (polymyxin B 1 µg/mL) | bacterial growth OD600 (polymyxin B 0.75 µg/mL)
1 | CN(Cc1ccno1)CC1(O)CCCN(CC2CC2)C1=O (configuration not stated) | 0.924 | –
2 | Cc1ccccc1CN1CCC(C2CCN(c3ncccn3)CC2)C1 (configuration not stated) | – | 0.758
3 | Cc1nonc1CN(C)C(=O)c1csc2nc(-c3ccc(C(F)(F)F)cc3)cn12 | 0.002 | –
4 | Cc1nc(N2CCC(C(=O)NCCc3ccccc3Cl)CC2)nc2cc(S(C)(=O)=O)ccc12 | – | 0.78
5 | COCC(=O)Nc1cc(C(=O)N2CCCCC2c2nccn2C)c2c(c1)nc(C1CCC1)n2C (configuration not stated) | – | 0.903
6 | OCCOc1ccccc1CN1CC[C@@H](N2CCCCCC2)[C@H](O)C1 | 0.949 | –
7 | CC(C)c1cc(CN2CCC(N3CCC(C(=O)NCc4ccccn4)CC3)CC2)n[nH]1 | 1.07 | –
8 | C[C@@H]1CN(C2(C(=O)N(C)Cc3nccs3)Cc3ccccc3C2)C[C@H](C)O1 | – | 0.758
9 | COc1ccccc1CNC(=O)c1c(OC)cc(=O)n2c1CCN(Cc1ccc(F)cc1)CC2 | – | 0.813
10 | CCOC(=O)C1(CCOC)CCN(Cc2cnn(-c3cccc(Cl)c3)c2)CC1 | 0.838 | –
11 | COCCn1cnc2cc(NC(=O)C3CCCCC3)cc(C(=O)NCCCN3CCCC3=O)c21 | – | 0.975
12 | CN(CCO)C(=O)C1CCCN(c2nc(-c3ccccc3)nc3c2CCC3)C1 (configuration not stated) | 0.908 | –
13 | COCCN1CCCC2(CCN(C(=O)CC3=CCCCC3)C2)C1=O (configuration not stated) | 0.884 | –
14 | CCNCCC1CCC(=O)N1CCc1nc2ccccc2n1C (configuration not stated) | – | 0.979
15 | COc1ccc(-c2cnnc(NCCc3nc(C)c(C)s3)n2)cc1 | – | 0.757
16 | O=C(c1csc2nc(-c3cccc(F)c3)cn12)N1CCCCCCC1 | 0.013 | –

Row | SMILES | bacterial growth OD600 (polymyxin B 1 µg/mL) | bacterial growth OD600 (polymyxin B 0.75 µg/mL)
17 | C=CC[C@H]1CC(C)=C[C@H](CC=C)N1C(=O)CC1(c2cccc(OC)c2)CC(=O)N(CCOC)C1=O (some centres not stated) | – | 0.005
18 | CCc1ccc(CN(C)C(=O)c2cc(COc3ccc4ncccc4c3)on2)nc1 | 0.882 | –
19 | COc1ccc(Cc2noc(-c3ccc(N(C)C(C)c4ccon4)nc3)n2)cc1 (configuration not stated) | 0.775 | –
20 | CCN(Cc1nccn1C)C(=O)c1ccc(N2CCCC(C)C2)nc1 (configuration not stated) | 0.916 | –
21 | COCC1CCN(C(=O)c2cc(COc3cccc(C(F)(F)F)c3)[nH]n2)CC1 | 1.15 | –
22 | CC(C)CC(=O)C(=O)NC1CC(=O)N(Cc2cccc3ccccc23)C1 (configuration not stated) | 0.823 | –
23 | COc1ccc(CCN2C(=O)O[C@@H]3CN(C4CCSCC4)C[C@@H]32)cc1 | – | 0.825
24 | O=C(NCC1CCCN(C(=O)CCN2CCCC2=O)C1)c1ccc(F)cc1 (configuration not stated) | 0.945 | –
25 | COc1ccc2c(c1)OC(C)CN(Cc1ccccc1O)C2 (configuration not stated) | – | 0.743
26 | CCCCNC(=O)NC1CCCc2nc(-c3ccccc3)ncc21 (configuration not stated) | – | 0.749
27 | CN(C)CCN(CC1CCCN(Cc2ccccc2F)C1)C(=O)CN1CCCC1=O (configuration not stated) | – | 0.87
28 | NC(=O)C1CCN(C(=O)CC(c2ccccc2)c2ccc3c(c2)OCO3)CC1 (configuration not stated) | – | 0.854
29 | CC(=O)N1CCN(C(=O)CC(c2cccc(O)c2)c2ccccc2Cl)CC1 (configuration not stated) | 0.832 | –
30 | CN(C)c1ncccc1CNC(=O)c1ccc2c(c1)OCCO2 | 0.833 | –
31 | CCOC(=O)C1(Cc2ccccc2)CCN(Cc2cccc3c2OCO3)CC1 | 0.759 | –
32 | Cc1ccc2c(c1)CN(Cc1ccc(C)s1)CC(C)O2 (configuration not stated) | – | 0.723

Grouped by structure, the entries above with fluorine (6)
Row | SMILES | bacterial growth OD600 (polymyxin B 1 µg/mL) | bacterial growth OD600 (polymyxin B 0.75 µg/mL)
3 | Cc1nonc1CN(C)C(=O)c1csc2nc(-c3ccc(C(F)(F)F)cc3)cn12 | 0.002 | –
9 | COc1ccccc1CNC(=O)c1c(OC)cc(=O)n2c1CCN(Cc1ccc(F)cc1)CC2 | – | 0.813
16 | O=C(c1csc2nc(-c3cccc(F)c3)cn12)N1CCCCCCC1 | 0.013 | –
21 | COCC1CCN(C(=O)c2cc(COc3cccc(C(F)(F)F)c3)[nH]n2)CC1 | 1.15 | –
24 | O=C(NCC1CCCN(C(=O)CCN2CCCC2=O)C1)c1ccc(F)cc1 (configuration not stated) | 0.945 | –
27 | CN(C)CCN(CC1CCCN(Cc2ccccc2F)C1)C(=O)CN1CCCC1=O (configuration not stated) | – | 0.87

Source: the supplement of paper PMC12889115
